In assay [1] the target is T1, PEAK2 W1382A (UniProt Q86YV5).
T1 sequence: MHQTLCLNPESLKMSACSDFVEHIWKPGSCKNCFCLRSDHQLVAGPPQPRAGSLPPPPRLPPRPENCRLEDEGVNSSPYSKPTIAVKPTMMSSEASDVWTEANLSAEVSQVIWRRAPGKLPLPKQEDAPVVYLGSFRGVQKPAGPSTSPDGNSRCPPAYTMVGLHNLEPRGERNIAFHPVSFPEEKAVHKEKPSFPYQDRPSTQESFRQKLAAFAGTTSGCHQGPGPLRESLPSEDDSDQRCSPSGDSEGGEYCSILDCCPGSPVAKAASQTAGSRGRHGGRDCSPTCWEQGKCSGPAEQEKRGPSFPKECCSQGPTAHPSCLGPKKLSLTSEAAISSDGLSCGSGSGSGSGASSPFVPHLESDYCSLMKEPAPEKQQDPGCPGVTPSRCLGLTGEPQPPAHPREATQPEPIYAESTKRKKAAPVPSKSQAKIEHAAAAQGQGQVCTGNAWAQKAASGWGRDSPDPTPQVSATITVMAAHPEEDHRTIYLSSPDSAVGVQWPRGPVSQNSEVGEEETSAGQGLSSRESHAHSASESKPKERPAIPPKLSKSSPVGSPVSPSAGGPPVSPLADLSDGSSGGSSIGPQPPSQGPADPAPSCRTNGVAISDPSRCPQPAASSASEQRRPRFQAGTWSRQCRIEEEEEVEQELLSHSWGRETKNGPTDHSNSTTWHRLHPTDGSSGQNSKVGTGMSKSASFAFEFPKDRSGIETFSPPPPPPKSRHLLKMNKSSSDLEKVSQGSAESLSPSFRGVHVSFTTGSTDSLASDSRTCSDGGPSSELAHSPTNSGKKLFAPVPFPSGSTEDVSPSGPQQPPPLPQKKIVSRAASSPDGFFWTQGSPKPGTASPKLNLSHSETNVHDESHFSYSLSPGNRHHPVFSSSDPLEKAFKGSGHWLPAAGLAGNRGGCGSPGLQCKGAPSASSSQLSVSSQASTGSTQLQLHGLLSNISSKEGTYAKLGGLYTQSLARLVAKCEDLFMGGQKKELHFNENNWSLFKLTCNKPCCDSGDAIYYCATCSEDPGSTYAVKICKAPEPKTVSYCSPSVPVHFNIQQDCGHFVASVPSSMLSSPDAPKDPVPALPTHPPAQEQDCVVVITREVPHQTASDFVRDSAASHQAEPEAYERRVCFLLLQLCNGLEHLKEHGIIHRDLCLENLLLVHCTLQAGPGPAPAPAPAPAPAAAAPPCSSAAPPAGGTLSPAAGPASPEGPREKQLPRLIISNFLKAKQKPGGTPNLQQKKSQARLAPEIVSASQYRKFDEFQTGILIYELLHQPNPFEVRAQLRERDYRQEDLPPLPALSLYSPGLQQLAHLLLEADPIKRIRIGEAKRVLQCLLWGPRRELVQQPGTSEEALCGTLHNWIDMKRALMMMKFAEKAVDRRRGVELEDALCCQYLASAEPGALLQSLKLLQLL
The experiment in a line: co-IP; association of PEAK2 and its mutants with CAMK2D (Supplementary Fig. 4); cells and details not shown; also with PEAK1 knockdown.

Sequences of proteins named here, by UniProt entry; tags and fusion partners are left off.
UniProt Q13557: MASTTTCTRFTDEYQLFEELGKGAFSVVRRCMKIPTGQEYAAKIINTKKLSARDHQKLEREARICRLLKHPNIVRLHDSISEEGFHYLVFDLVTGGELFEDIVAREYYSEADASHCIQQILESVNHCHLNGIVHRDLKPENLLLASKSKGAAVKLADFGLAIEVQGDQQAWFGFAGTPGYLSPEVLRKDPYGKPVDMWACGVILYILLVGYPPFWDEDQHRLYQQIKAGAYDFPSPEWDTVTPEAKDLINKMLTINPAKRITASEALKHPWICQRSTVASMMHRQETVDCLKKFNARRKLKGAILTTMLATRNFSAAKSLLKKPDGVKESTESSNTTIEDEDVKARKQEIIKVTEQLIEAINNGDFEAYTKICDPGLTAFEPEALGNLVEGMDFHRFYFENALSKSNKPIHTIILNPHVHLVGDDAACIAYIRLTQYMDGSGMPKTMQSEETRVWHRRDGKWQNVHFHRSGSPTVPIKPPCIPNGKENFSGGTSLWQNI

Assay [2] deals with T2, PEAK2 WT (N-terminal HA-tagged and C-terminal FLAG-tagged) (UniProt Q86YV5).
T2 sequence: T1 sequence with A1382W
The description is as above.

Positions count from the first letter of the chain named. No constants are given. Whether binding was seen depends on the method and setting. In cells and extracts the contact can be indirect. Some binding calls cover weakened binding; strength is not graded here. For some assays here: Tags and fused reporters may be left off the sequences shown.

For one substance, binding results are on record in publication PMC11845518.

On to “CAMK2D (partner of PEAK2 in Supplementary Fig. 4) (from UniProt Q13557 1-499) (enzyme)”, for which the binding result in assay [1] and in assay [2] was “binds” in each case.
